Data as given in the supplement of paper PMC4371806.
In all, about 1,600 compounds were measured (“plate-normalized OD600 growth (mean of duplicates)”: median about 0.31, lowest 2% from about 0.23 on). This is one part of the list.

Tested on: Escherichia coli BW25113
Test: plate-normalized OD600 growth (mean of duplicates) (OD600 (normalized)); higher = more growth (less inhibition)
Details: 10 µM
Description: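 E. coli BW25113 in LB (100 µl, 96-well, no shaking) was exposed to 10 µM of each compound (here the ChemBridge subset of a ~30,000-member library) and grown at 37°C for 24 h or 15°C for 48 h, in duplicate. Growth was read as OD600 and the duplicate ODs were normalized across screening plates to correct plate-to-plate variation.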

SMILES	plate-normalized OD600 growth (temperature: 15°C, 48 h)	plate-normalized OD600 growth (temperature: 37°C, 24 h)
Cc1cc(C)c(S(=O)(=O)Nc2ccccc2F)c(C)c1	0.248	0.632
O=C1CCC(=O)N1CCc1c[nH]c2ccc(OCc3ccccc3)cc12	0.242	0.613
COc1cccc(NC(=O)c2cc(OC)cc(OC)c2)c1	0.246	0.644
CN(CCCc1ccccc1)CCc1ccccn1	0.26	0.659
Cc1nc2ccccc2c(C(=O)O)c1-c1ccccc1	0.248	0.612
CCC(CO)NC1=C([N+](=O)[O-])C(=O)CC(C)(C)C1 (centres undefined)	0.282	0.666
Cc1nc([N+](=O)[O-])c(NCCO)n1Cc1ccccc1	0.253	0.617
OCCN(Cc1ccccc1)CC1CC2C=CC1C2 (centres undefined)	0.238	0.601
COc1ccc(OC)c(/C=C(\C#N)c2ccc(Cl)cc2)c1	0.237	0.602
CCOC(=O)N1CCC(NC2C3CC4CC(C3)CC2C4)CC1 (centres undefined)	0.276	0.628
O=[N+]([O-])c1ccc(N2CCN(Cc3cccs3)CC2)cc1	0.22	0.599
CCN(CC)CCN(C)C/C=C/c1ccccc1	0.208	0.608
CC1CC2(C)Oc3ccccc3C3OCC1(CO)C(C)C32 (centres undefined)	0.29	0.635
O=C(O)C1CCCCC1C(=O)N1CCCC1 (centres undefined)	0.268	0.664
Cc1nc2nc(-c3cccs3)[nH]c2cc1Br	0.253	0.585
N#CC1=C(N)OC2=C(C(=O)CCC2)C1c1cccnc1 (centres undefined)	0.238	0.629
COc1ccc(-c2ccc(/C=C/C(=O)c3ccco3)o2)cc1	0.243	0.614
CN1CCN(C(=O)CC23CC4CC(CC(C4)C2)C3)CC1	0.244	0.636
O=C(CSc1ccccc1)c1c[nH]c2ccccc12	0.228	0.592
O=C(N/C(=C\c1ccco1)C(=O)N1CCCC1)c1cccs1	0.255	0.612
Cc1ccc(NC(=O)C(C#N)=C2NC(C)(C)Cc3ccccc32)c(C)c1	0.249	0.613
CN(C)CCN(Cc1ccccc1)Cc1cccc(Cl)c1	0.261	0.625
COc1ccc(-c2csc(/C(C#N)=C/c3ccc(OC)c(OC)c3)n2)cc1	0.286	0.636

Four compounds from above, sorted by molecular weight, high to low:
SMILES	plate-normalized OD600 growth (temperature: 15°C, 48 h)	plate-normalized OD600 growth (temperature: 37°C, 24 h)
Cc1ccc(NC(=O)C(C#N)=C2NC(C)(C)Cc3ccccc32)c(C)c1	0.249	0.613
O=C(N/C(=C\c1ccco1)C(=O)N1CCCC1)c1cccs1	0.255	0.612
Cc1nc([N+](=O)[O-])c(NCCO)n1Cc1ccccc1	0.253	0.617
CCN(CC)CCN(C)C/C=C/c1ccccc1	0.208	0.608

(more compounds)

SMILES	plate-normalized OD600 growth (temperature: 15°C, 48 h)	plate-normalized OD600 growth (temperature: 37°C, 24 h)
COc1ccc(NS(=O)(=O)c2ccc3c(c2)OCCO3)cc1OC	0.261	0.637
OC(COCc1ccc2c(c1)OCO2)CN1CCCCC1 (centres undefined)	0.261	0.656
O=C1CCCc2c1nn(-c1ccccc1)[n+]2[O-]	0.249	0.618
Cn1c(=O)c2c(nc(N3CCN(c4ccc([N+](=O)[O-])cc4)CC3)n2C)n(C)c1=O	0.261	0.616
N#Cc1cc([N+](=O)[O-])cnc1SCC(=O)Nc1ccccc1	0.273	0.645
CCSc1sc(CC)cc1C(N)=O	0.239	0.621
CC(C)N(C(=O)c1ccc(C(=O)Nc2ccc(Br)cc2)cc1)C(C)C	0.252	0.65
COc1cc(OC)c(C(=O)CCC(=O)O)cc1OC	0.252	0.663
Cc1c(CN2CC3(C)CC2CC(C)(C)C3)c(=O)n(-c2ccccc2)n1C (centres undefined)	0.241	0.611
Cc1cc(C)cc(OCC(O)CN2CCCCC2)c1 (centres undefined)	0.259	0.636
CC(C)C(=O)N1CCN(c2ccc(F)cc2)CC1	0.249	0.599
N#CC1=C(N)OC2=C(C(=O)CC(c3ccccc3)C2)C1c1c[nH]c2ccccc12 (centres undefined)	0.274	0.641
Cc1ccc(-c2csc(C(C#N)=CC=Cc3ccc([N+](=O)[O-])cc3)n2)c(C)c1	0.248	0.598
COc1ccc(C2C(=C(O)c3ccc(C)cc3)C(=O)C(=O)N2CCN2CCOCC2)cc1 (centres undefined)	0.242	0.602
O=C(Nc1ccccc1[N+](=O)[O-])c1cccc(S(=O)(=O)N2CCOCC2)c1	0.244	0.615
CCOC(=O)Nc1ccc(Cl)cc1[N+](=O)[O-]	0.254	0.603
CC1=NN(c2cc(C)nc(-c3ccccc3O)n2)C(=O)C1	0.253	0.614
Cc1ccccc1C(=O)Nc1ccc(Br)cc1	0.282	0.631
c1ccc2[nH]c(SCCN3CCCC3)nc2c1	0.26	0.627
O=[N+]([O-])c1ccc(N2CCCC2)cc1N1CCOCC1	0.259	0.647
COc1ccc(-c2nc(-c3ccc(Cl)cc3)no2)cc1	0.247	0.616
CC1CCc2sc(NC(=O)c3ccc(Br)o3)c(C#N)c2C1 (centres undefined)	0.234	0.592
CC(O)(CC(=O)O)C12CC3CC(CC(C3)C1)C2 (centres undefined)	0.266	0.636

SMILES	plate-normalized OD600 growth (temperature: 15°C, 48 h)	plate-normalized OD600 growth (temperature: 37°C, 24 h)
CCC1CCc2c(sc(N)c2C#N)C1 (centres undefined)	0.237	0.605
CC(=O)c1c(-c2ccccc2)c2cc(Cl)ccc2[nH]c1=O	0.228	0.618
CCN(CC)CCOc1ccccc1Br	0.233	0.621
CSc1ccc(C2C(C#N)=C(N)Oc3nc(C)[nH]c(=O)c32)cc1 (centres undefined)	0.252	0.6
O=C(NN1CCOCC1)c1ccc(Cl)s1	0.243	0.622
CCc1ccccc1NS(=O)(=O)c1ccc(F)cc1	0.21	0.618
CC(NC(=O)COc1ccc([N+](=O)[O-])cc1)c1ccccc1 (centres undefined)	0.252	0.612
N#Cc1c(N)nc2c(c1-c1ccco1)CCCCCC2	0.249	0.615
CCCN(CCO)Cc1cc(OC)c(OC)cc1Br	0.263	0.609
COc1ccc(-c2c(C)nn3c(C)cc(C)nc23)cc1	0.249	0.614
NNC(=O)C(O)c1ccc(Cl)cc1 (centres undefined)	0.272	0.623
O=C(O)c1cc(S(=O)(=O)N2CCCC2)ccc1Br	0.262	0.637
O=C(O)C1CC(C(=O)O)C(C(=O)O)CC1C(=O)O (centres undefined)	0.242	0.612
CCCC(=O)N1CCN(c2cc(N3CCCCC3)c(F)cc2[N+](=O)[O-])CC1	0.254	0.631
CN1CCC(N(C)Cc2ccc3c(c2)OCO3)CC1	0.257	0.646
O=C(O)c1cc(NC(=O)c2cccc([N+](=O)[O-])c2)cc(C(=O)O)c1	0.254	0.609
CCN(CC)C(=O)C1CCCN(Cc2ccc3c(c2)OCO3)C1 (centres undefined)	0.254	0.622
Cc1ccc(C(=O)/C=C/c2ccc(F)cc2)o1	0.25	0.63
Oc1ccc(CN2CCN(c3ncccn3)CC2)cc1	0.244	0.631
O=[N+]([O-])c1ccc(-c2nnc3ccc4ccccc4n23)cc1	0.239	0.625
O=C(Nc1ccncc1)c1ccc(Cl)cc1Cl	0.263	0.623
